## Percent effect of library compounds

Protein sequences, listed by entry. Tags and fused reporters are not part of them. Residues count along the entry.
UniProt A4I591, 1-473: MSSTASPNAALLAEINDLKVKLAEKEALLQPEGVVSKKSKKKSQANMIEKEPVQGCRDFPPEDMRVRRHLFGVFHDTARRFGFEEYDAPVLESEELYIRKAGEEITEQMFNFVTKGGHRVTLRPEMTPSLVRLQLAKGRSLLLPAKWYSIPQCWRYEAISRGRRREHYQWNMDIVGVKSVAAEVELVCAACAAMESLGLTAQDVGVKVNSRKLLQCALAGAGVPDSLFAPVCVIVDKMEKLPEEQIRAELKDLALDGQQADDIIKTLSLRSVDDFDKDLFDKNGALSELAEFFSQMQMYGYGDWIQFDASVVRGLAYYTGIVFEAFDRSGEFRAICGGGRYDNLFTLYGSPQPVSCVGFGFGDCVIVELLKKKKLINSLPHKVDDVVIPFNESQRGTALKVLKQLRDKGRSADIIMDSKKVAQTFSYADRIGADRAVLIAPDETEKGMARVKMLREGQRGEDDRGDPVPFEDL
UniProt Q4DA54, 1-478: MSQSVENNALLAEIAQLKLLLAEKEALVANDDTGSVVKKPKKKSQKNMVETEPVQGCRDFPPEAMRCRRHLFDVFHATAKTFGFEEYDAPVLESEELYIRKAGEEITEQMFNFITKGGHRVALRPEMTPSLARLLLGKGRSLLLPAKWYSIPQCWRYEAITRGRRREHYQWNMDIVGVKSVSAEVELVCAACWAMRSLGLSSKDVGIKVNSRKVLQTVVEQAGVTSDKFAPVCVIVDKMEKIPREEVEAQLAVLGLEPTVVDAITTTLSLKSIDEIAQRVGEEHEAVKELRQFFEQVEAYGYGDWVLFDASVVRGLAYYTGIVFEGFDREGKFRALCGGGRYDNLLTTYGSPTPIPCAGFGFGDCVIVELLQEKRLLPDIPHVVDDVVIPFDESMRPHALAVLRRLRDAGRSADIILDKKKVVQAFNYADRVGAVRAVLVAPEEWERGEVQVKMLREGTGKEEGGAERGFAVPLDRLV
UniProt Q8IDJ8, 1-583: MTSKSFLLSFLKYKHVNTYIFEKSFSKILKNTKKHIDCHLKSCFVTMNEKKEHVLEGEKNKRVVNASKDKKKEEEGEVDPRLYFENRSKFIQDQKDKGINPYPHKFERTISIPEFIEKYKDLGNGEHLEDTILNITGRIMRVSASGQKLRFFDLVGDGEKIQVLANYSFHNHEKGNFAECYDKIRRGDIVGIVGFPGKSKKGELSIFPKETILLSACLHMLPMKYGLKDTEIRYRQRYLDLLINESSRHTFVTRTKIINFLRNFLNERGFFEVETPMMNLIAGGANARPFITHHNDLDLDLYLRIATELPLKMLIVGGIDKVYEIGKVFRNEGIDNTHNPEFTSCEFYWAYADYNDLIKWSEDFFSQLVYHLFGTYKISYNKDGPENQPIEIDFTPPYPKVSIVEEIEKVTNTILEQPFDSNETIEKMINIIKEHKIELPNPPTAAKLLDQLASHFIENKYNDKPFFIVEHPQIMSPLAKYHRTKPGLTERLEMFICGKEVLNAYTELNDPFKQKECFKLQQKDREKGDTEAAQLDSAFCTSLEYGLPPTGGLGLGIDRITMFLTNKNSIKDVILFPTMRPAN

The values are deposited in ChEMBL (CHEMBL3988442, “University of Dundee, Small-Polar-MMV Screening Library” (2021)).

LiHisRS: 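Enzyme assay of histidyl-tRNA synthetase; the read-out is not stated. Target: Histidine-tRNA ligase, Leishmania infantum (UniProt A4I591). Compounds at 30 µM. The record gives no direction; compounds that gave an IC50 in retests scored well above the rest, so higher reads as stronger inhibition. The assay is labelled LdHisRS but filed under L. infantum. About 69,000 compounds were tested under these conditions; 0.6% (about 410) showed 50% or more at least once.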
TcHisRS: 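Histidine-tRNA ligase, Trypanosoma cruzi CL Brener (UniProt Q4DA54). Enzyme assay of histidyl-tRNA synthetase; the read-out is not stated. Tested at 30 µM. Higher reads as stronger inhibition (inferred: compounds with an IC50 in retests scored well above the rest). About 69,000 compounds were tested under these conditions; 0.045% (about 31) showed 50% or more at least once.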
PfKRS1: 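Lysine-tRNA ligase, Plasmodium falciparum 3D7 (UniProt Q8IDJ8). Enzyme assay of the cytosolic lysyl-tRNA synthetase in 384-well plates, read by luminescence. Tested at 30 µM. Direction is inferred from only a few compounds that gave an IC50; most scored high, so higher reads as stronger inhibition. Of about 69,000 compounds tested this way, about 49 (0.071%) reached 50% or more in at least one test.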
Leishmania in macrophages: 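Cell assay of Leishmania donovani living inside macrophages; the read-out is not stated. Concentration: 30 µM. Direction is inferred from retests: higher values go with stronger inhibition. Of about 69,000 compounds tested this way, about 1,000 (1.5%) reached 50% or more in at least one test.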

Each number is a percent effect as filed. How 0% and 100% were set is not recorded. Most values in the screen are low, and negative values occur. Compounds were drawn at random from those tested, without regard to their results. Two or more numbers in one place are separate tests of the same structure; such repeats can differ widely. A dash means the value is not listed here; it may have been measured.

Compound	LiHisRS	TcHisRS	PfKRS1	Leishmania in macrophages
CN1CCN(C)C(CNC(=O)N(C)Cc2ccc(Cl)c(F)c2)C1 (stereo unspecified)	-3.371	3.627	-0.6931	6.902
Cc1n[nH]c(C)c1C1COCCN1C(=O)c1n[nH]c2ccccc12 (stereo unspecified)	6.481	2.639	-3.3	2.065
Cn1cnc2c1CCN(Cc1nc(-c3ccsc3)no1)C2	30.77	-0.3831	-7.449	14.69
CCOCc1nc2c(c(N(C)Cc3ccsc3)n1)CCNCC2	9.677	-0.5952	-1.216	-4.476
CNC(=O)CS(=O)(=O)Cc1ccc(OC)c(F)c1	3.2	1.961	-0.3282	5.89
Cc1nn2cccnc2c1C(=O)N1CCCC(n2cccn2)C1 (stereo unspecified)	14.29	0.5764	-1.139	-8.11
COCCN1C[C@H]2[C@@H](C1)N(Cc1cnn(C)c1)CC[C@H]2OC	20.51	7.317	3.766	-
CC(C)Cc1nc(NC(=O)c2cccnc2)n[nH]1	8.696	1	2.838	-39.38
CCN1CCC2(CCC(=O)N2Cc2cccc(C)n2)CC1	26.83	3.759	4.139	-
CS(=O)(=O)N1CCOCC2(CN(Cc3nccs3)CCO2)C1 (stereo unspecified)	7.965	2.151	1.967	-
Cn1c(=O)c2cc(C(=O)NCCOCC(F)(F)F)ccc2n(C)c1=O	16.49	3.468	0.8058	-11.84
Cn1nc(CNC(=O)c2ccc(Cl)cc2)c2c1CCOC2	14.56	-1.087	-5.254	20
CC(C)CC(NC(=O)c1cc(-c2cccn2C)n[nH]1)c1ncnn1C (stereo unspecified)	26	13.25	2.327	8.082
Oc1ccc(N2CCC(Cc3ccccc3)CC2)nn1	24.78	9.821	3.659	-0.9967
COCCC1COC2(CCN(C(=O)c3ccco3)CC2)C1 (stereo unspecified)	10.95	2.732	7.257	-16.2
CC(C)N(C)C(=O)c1ccc(CNc2cncc(Cl)n2)cc1	9.877	-0.6135	4.134	-33.84
Cc1ccc2[nH]c(=O)cc(C(=O)N[C@@H]3C[C@@H](CO)N(C)C3)c2c1	15.38	2.488	5.216	10.63
Cc1cn[nH]c1C1COCCN1C(=O)c1ccc2[nH]nnc2c1 (stereo unspecified)	2.685	0.8571	-1.939	-17.83
COCCCN(C)S(=O)(=O)c1ccc(C(F)(F)F)cc1C#N	11.11	2.222	-0.3207	2.76
CN(Cc1cnn(C)c1)C(=O)c1ccc(=O)n(Cc2ccccc2)n1	22.34	6.03	-0.8146	-1.31
CC(c1ccco1)N(C(=O)COc1ccc(C#N)cc1)C1CC1 (stereo unspecified)	11.84	3.448	6.502	-2.793
Cc1ccc(CN(C)C(=O)CCn2c(=O)n(C)c3ccccc32)o1	1.786	3.509	-1.424	-0.9541
c1cc(CN2CCC[C@@H](Cn3nnc(-c4cnccn4)n3)C2)ccn1	8.392	4.52	3.806	17.86
Cc1nc(C)n(C2CCCN(C(=O)c3ccc(CN(C)C)cc3)C2)n1 (stereo unspecified)	5.505	6.122	0.7259	19.66
Cc1ccc(C)c(CC(=O)NC2(C#N)CCOCC2)c1	16.07	1.754	3.818	11.06
CN(Cc1ccco1)Cc1cnc2n1CCN(c1ncccn1)CC2	-3.419	7.362	4.383	-
O=C(Cn1ccc(=O)c2ccccc21)Nc1cnccc1O	0.8772	8.621	0.4209	4.942
O=C1CCC(C(=O)NCc2nncn2-c2ccccc2)CN1 (stereo unspecified)	30.95	0	-0.3371	16.93
Cc1nc(C)c(CC(=O)N2C[C@@H](C(=O)O)[C@H](c3ccccc3C)C2)s1	19.74	4.348	5.559	31.42
C[C@@H]1CN(C(=O)Cc2ccsc2)C[C@]12CCN(CCN(C)C)C2=O	13.76	2.404	0.9361	5.398
CCC(=O)N1CCC2(CC1)CC(N1CCOCC1)c1cc(C)ccc12.O=C(O)C(F)(F)F (stereo unspecified)	-	-	-	12
O=C(c1cccs1)N1CC[C@@H]2[C@H]1CCC(=O)N2c1ccccc1	13	13.27	-1.283	-
O=C1CC(c2ccc(C(F)(F)F)cc2)c2snc(C(=O)O)c2N1 (stereo unspecified)	5.172	5.217	2.075	34.48
CN(CCOCC1CC1)C(=O)Nc1ccc([S+](C)[O-])cc1 (stereo unspecified)	-5.319	-2.02	1.596	-24.09
O=C(Cc1ccccc1)NCCNS(=O)(=O)C1CCCCC1	23.08	3.96	-0.3661	44.91
[H][C@]12CC[C@]([H])(CN(C(=O)c3cnccn3)C1)N(S(=O)(=O)c1cccnc1)C2	-	-	-	25.99
Cc1cc(NCCc2nnc(N)s2)nc(-c2cccnc2)n1	5.594	4.478	4.238	14.7
Cc1ccc(F)c(C(=O)Nc2cccc(CCN3CCCC3)c2)c1	12.61	8.824	3.317	51.62
CCn1ccnc1CN1CCCN(C(=O)Cc2ccc(F)cc2)CC1	11.97	2.564	-1.286	21.05
CCN(CC)Cc1cc(C(=O)N2CCCC(O)(CO)C2)c(C)o1 (stereo unspecified)	17.11	3.448	5.791	13.84
O=C(O)C(F)(F)F.[H][C@]12CCN(Cc3ccc(F)cc3)C[C@@]1([H])OCCN(S(C)(=O)=O)C2	-	-	-	-3.619 and -5.924
O[C@@H]1Cc2ccccc2[C@@H]1Nc1ncccc1F	6.25	6.329	2.019	-0.8065
O=C(N1CCCC1)N1C[C@@H]2CCNC[C@@H]21	13.59	10.68	3.877	-
CCCOc1cc(C)ccc1NC(=O)NCCNC(C)=O	10.62	1.754	3.592	-88.75